Laboratory results as given in patent publication US20240117385A1, “ENZYMES OF LUCIFERIN BIOSYNTHESIS AND USE THEREOF” (LIGHT BIO, INC., priority 2018, published 2024).
Some results were stated once for a whole list of compounds, not compound by compound. Some ranges recur; such a range may be that of the whole group of compounds.

Each molecule was assayed on Pichia pastoris GS115 cells, constitutively expressing Neonothopanus nambi luciferase (assay: Pichia pastoris colonies expressing hispidin hydroxylase homolog genes and luciferase, sprayed with hispidin). Details: IVIS Spectrum CT; vs control cells.
Assay type: cell-based

Molecule | luminescence at spraying with hispidin solution, times more than control cells
SEQ ID NO: 3: coding sequence of a hispidin hydroxylase homolog | 1000-100000000 times
SEQ ID NO: 21: coding sequence of a hispidin hydroxylase homolog (nucleic acid, Armillaria fuscipes) DNA: ATGCAACAAATCGACGAAGCGCGTCCATTGAAGGTGCTAGTCGTGGGTGCTGGACTCTGTGGGCTTTCCGCCGCCATCGCACTTCGTAGACAAGGGCATCACGTCCATATACTTGAATCTTCAAGTTTCAAGAGCGAACTTGGGGCAGGTCTCGCCGTGCCACCTAATACTGTGCGCTCTCTTCGAGGTCTCGGCTGTGACATAGACAATCTCAAGCCCGTGGATAATCTTTGTTTCACTGCTATGTCGCATGACGGAAGCCCAGGCATGATGAATAACATGACGGACTATCGCAAGGCGTATGGTGATCCTTGGGTGATGGCACATCGTGTCGACCTTCATAACGAGCTTATGCGAGTGGCTCTCGACCCTGATGGGACAGGTCCTCCTGCCCAACTTCGTTTGGGCGTCCAGGTTGTGTCTTGCGATGTTGAAGCTTGTACTGTTTCCCTTGTCGATGGAGAGGTCTGTTCCGCCGATCTTATCGTTGGAGCTGATGGTATCAGGTCAACCATACGCTCCTATGTTCTAGGCAAAGAAATAGATATACCTCCTACCGGCATTGCCGGATACCGCTGGCTTACACCATCAGAGGCTTTGGAGCCTTTTCCCGAACTTGATTGGATTATCAAGAACCCACCTCTAGGAGCACGTCTAATCACCGCTCCCATACGCCGGAACGAACAAATGAATGACGGTGAGATGGCTGACAAGCGTACGATCATCATCTACGCGTGCCGCAACGGCACAATGATTAACGTTCTCGGTGTGCACGATGACCCGCGCAACCAGAATGAAGTCGGATGGAACGTGCCAGTAACCCAAGAAAAATTGCTCGAATTTTTCGGAGACTACCACCCACGGTTCAAAAGTTTACTTCAGCTATCTGATAGTATTCATTTGTGGCAAATGCGTGTTGTTCCACGGCTTGACACATGGATCAATCAACGTGTGTGTTTGCTGGGCGATTCTGCACATGCGTCATTACCAACGCTCGGGCAAGGCTTCGGGATGGGTCTTGAGGACGCCATAGCTCTTGCAACCCTCCTTCCGATGGGCGCCAAAGTGTCGGACATTGAGAATCGCCTTATCGCCTACGAAAGCCTGCGTAAGGAGCGTGCAGAGTTTGTAGCCACGGAATCATTAGAACAGCAAGATATTCCCGAAAAGCGAGGCTTGTATCTCAGATCCCCTATGATGCGCGATAAAATAATGGGTTACGATATCAAAGCCGAAGCTGAAAAGGTTTTAATGGAGTTATTGAGCTCGAAAGCTCAA | 1000-100000000 times
SEQ ID NO: 23: coding sequence of a hispidin hydroxylase homolog (nucleic acid, listed as Armillaria gallica) DNA: ATGCAACAAATCGACGAAGCGCGCGCATTGAAAGTGATAGTCGTGGGTGCTGGACTTTGCGGGCTTTCCGCCGCCATTGTACTTCGTAGGCAAGGGCATCACGTCCATATACTTGAATCTTCAAGTTTCAAGAGCGAACTTGGTGCAGGTCTTGCCGTGCCGCCCAACACTGTACGCTCTCTTCGAGGTCTAGGTTGTAACATCGACAATCTCAAGCCCGTGGATAATCTTTGTTTCACTGCCATGGCTCATGACGGAAGCCCAGGCATGATGAATAACATGACAGACTATCAGAAGGCGTACGGCGATCCTTGGGTAATGGCGCATCGTGTCGACCTCCATAACGAGCTCATGCGAGTGGCTCTCGACCCTGAAGGAACAGGCCCTGCTGCCCAGCTTCGTTTGGGCGTCCAGGTGGTGTCTTGTGATGTGGAAGCTTGTACCATTTCTCTTGTCGATGGATCAATCTGTACCGCCGATCTTATCGTCGGAGCTGATGGTATTAGGTCAACCATACGGTCCTATGTTTTGGGCAAAGAAATAGACATACCTCCTACCGGTATTGCTGGATACCGCTGGCTCACACCGGCAGAAGCTTTGGACCCATATCCCGAACTCGACTGGATTATCAAGAACCCACCCCTGGGAGCACGTTTAATCACAGCTCCCGTTCGCCGAAACGATAAGGCGGATGACGGTGAGAAAGCTGACAAGCGCACGATCATAATCTACGCGTGCCGCAGTGGCACTATGATCAACGTTCTCGGTGTGCACGATGACCCGCGCAACCAGAATGAAGTCGGATGGAACGTACCAGTTACCCAGGAAAATTTGTTGGAGTTTTTCGAAGACTACCACCCACGGTTTAAGCGTTTACTTCAGCTGACCGATAACATTCATTTGTGGCAAATGCGTGTTGTCCCGCGGCTTGACACATGGATTAATAAACGCGTGTGTTTGCTGGGCGATTCTGCACATGCGTCATTACCAACACTCGGGCAAGGCTTCGGGATGGGTCTTGAGGACGCCGTAGCTCTCGCAACCCTCCTTCCGATGGGAACCAAATTGTCTGACATTGAAAACCGTCTTGTCGCCTACGAAAGCTTGCGTAAGGAGCGTGCTGAGTATGTAGCCACGGAATCATTAGAACAGCAGGATATTCCGGGAAAGCGAGGCTTGTATCTCAGGTCTCCTGTGATGCGCGATAAAATAATGGGTTATGATATCAAAGCCGAAGCTGAGAAGGTTTTAATGGAATTGATAACC | 1000-100000000 times
SEQ ID NO: 25: coding sequence of a hispidin hydroxylase homolog (nucleic acid, listed as Armillaria ostoyae) DNA: ATGCAACAAATCGACGAAGCGCACCCATTGACAGTGATAGTCGTGGGTGCTGGACTTTGCGGGCTTTCCGCCGCCATTGCACTTCGTAGGCAAGGGCATCACGTCCATATACTTGAATCTTCAAGTTTCAAAAGCGAACTTGGCGCAGGTCTCGCCGTGCCGCCCAACACTGTACGCTCTCTTCGAGGTCTAGGTTGTAACATCGACAATCTCAAGCCCGTGGATAATCTTTGTTTCACTGCCATGGCGCATGACGGAAGCCCAGGCATGATGAATAACATGACAGACTATCACAAGGCGTACGGCGAGCCTTGGGTAATGGCGCATCGTGTCGACCTCCATAACGAGCTCATGCGAGTGGCTCTCGACCCTGAAGGAACAGGTCCTCCTGCTCAGCTTCGTTTGGGTGTCCAGGTGGTGTCTTGCGATGTGGAAGCTTGTACCATTTCTCTTGTCGATGGATCAATCTGTTCCGCCGATCTTATCGTCGGAGCTGATGGTATTAGGTCAACCATACGCTCCTATGTTTTGGGCAAAGAAATAGACATACCTCCTACCGGTATTGCTGGATACCGTTGGCTCACACCGGCAGAAGCTTTGGAGCCATATCCCGAACTCGACTGGATTATCAAGAACCCACCCCTGGGAGCACGTTTAATCACGGCTCCCGTACGCCGAAACGATAAGACGGATGACGGTGAGAAGACTGACAAGCGCACGATCATAATCTACGCGTGCCGCAATGGCACTATGATCAACGTTCTCGGTGTGCACGATGACCCGCGCAACCAGAATGAAGTCGGATGGAACGTACCAGTTACCCAGGAAAATTTGTTGGAGTTTTTCGAAGACTACCACCCACGGTTTAAGCGTTTACTTCAGTTGGCCGATAGTATTCATTTGTGGCAAATGCGTGTTGTCCCACGGCTTGACACATGGATTAATAAACGCGTGTGTTTGCTGGGCGATTCTGCACATGCGTCATTACCAACACTCGGGCAAGGCTTCGGGATGGGTCTTGAGGACGCCGTAGCTCTCGCAGCCCTCCTTCCGATGGGAACCAAAGTGTCTGACGTTGAGAGTCGTCTTATCGCCTACGAAAGCTTGCGTAAGGAGCGTGCTGAGTATGTAGCCACGGAATCATTAGAACAGCAGAATATTCCGGGAAAGCGAGGCTTGTATCTCAGGTCTCCTATGATGCGCGATAAAATAATGGGTTATGATATCAAAGCCGAAGCTGAGAAGGTTTTAATGGAATTAATAACCTCGACAGCTCAG | 1000-100000000 times
SEQ ID NO: 27: coding sequence of a hispidin hydroxylase homolog (nucleic acid, Mycena chlorophos) DNA: ATGCCCTCCACCGCCGAATCTCCGCAGCCGCTCAAGATCGTCATCGTCGGTGCTGGGCTCGTTGGTCTCGCTGCTGCCATTGCGCTTCGTCGCGAGGGTCATCATGTAGAGATATACGAATCGTCGACGTTCAAGACCGAACTCGGCGCCGGTCTCGCGATACCGTGCAATACCCTCCGTAGCCTCATTGAGCTGGGGTGCATTGTGGCTAACTTGAACCCGGTGGAGAACCTCTGTTTCACGTCTATGGCGCACGACGGAAGCGAGTCAGGCATGCGAAGCGACCACACCGACTACGAGGCGCGTTATGGGACCCCTTGGGTCATGGCGCATCGCGTCGACATACACGCAGAGCTGCTCCGAATGGCCACCACCTCCGATATTCCCGGCCCACCGGCGACACTGCATCTCGGCCAACGCGTCCTTGCCTGCAATGTGTCCGACTGCTCCATTGCACTGGCCACCGGCAAAACGATCTCAGCGGATCTCGTCGTTGGTGCCGATGGGATTCGCTCGACCATTCGAGCTGCTGTTCTTGGCGAAGATATCCACATTCCGGCATCGGGCACTGCCGGCTTCCGATGGCTCGTAGATTCCGCCGCGCTGGATCCCTATCCCGAGCTGGACTGGATTGTGAAAGCCCGTCCGCTTGGCGCTCGCGTTATTTCTGCCCCGATGGGCCTCGCACTCGAAGATCATCGTACCATTGTGATCTATGCGTGTCGCGGCGGTAACTTGATCAACGTTCTTGCGGTCCACGAAGACAAGCGCGACCAGGAGGCTGTCCCTTGGAATGTCCCTTTGACGCGCGAAGCCCTCTTGGACTTCTTTAGCGACTACCACCCGCGTTTCCGCCGTCTCTTCGAGCTCGCGCCGGTCGACGGAATTCACGTCTGGCAGATGCGGGTCGTACCACCTTTGGCCAACTGGATCCGTGACCGCGTTTGCATTCTCGGCGACGCGGCGCATGCGTCTCTTCCTACTATGGGCCAGGGCTTTGGCCAAGGTCTCGAAGACGCCGTTGCGCTAGCGACTTTGCTCCCGCTAGGAACGCGTAGAACGGATATCCCCGCTCGTCTAGTGGCGTATGAGGGGATGCGCAAGCCTCGGACCGAGTGGATTGCACGCGAATCGTTTGAGCAGCAGGCCGTCGCGGAAAAGCGCGGCATTTACTTGCGCTCTATCGAAATGCGCGATGCGGTTATGGGGTATAATGTTCGCGAGGAGGCTAAGCGCGTCTTGTCCGAGCTCACTAAATCTGATTGT | 1000-100000000 times
